Assay results: PMC5626702
Results are given in words; binding and its absence hold for the method and conditions named. In cells and extracts the contact can be indirect. Some results given as binding are weak or reduced against the parent protein; the word gives no strength.

Sequences of proteins named here, by UniProt entry; tags and fusion partners are left off.
UniProt P50148: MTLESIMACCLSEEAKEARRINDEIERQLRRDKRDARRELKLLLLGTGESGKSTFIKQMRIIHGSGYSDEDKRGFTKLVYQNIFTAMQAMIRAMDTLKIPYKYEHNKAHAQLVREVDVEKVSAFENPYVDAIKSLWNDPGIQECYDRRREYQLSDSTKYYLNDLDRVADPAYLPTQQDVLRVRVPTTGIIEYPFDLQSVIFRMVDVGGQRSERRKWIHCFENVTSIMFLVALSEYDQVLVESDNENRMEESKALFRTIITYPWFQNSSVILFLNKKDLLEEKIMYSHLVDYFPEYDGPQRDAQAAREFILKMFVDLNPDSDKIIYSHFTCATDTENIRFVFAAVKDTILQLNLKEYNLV
UniProt Q03113: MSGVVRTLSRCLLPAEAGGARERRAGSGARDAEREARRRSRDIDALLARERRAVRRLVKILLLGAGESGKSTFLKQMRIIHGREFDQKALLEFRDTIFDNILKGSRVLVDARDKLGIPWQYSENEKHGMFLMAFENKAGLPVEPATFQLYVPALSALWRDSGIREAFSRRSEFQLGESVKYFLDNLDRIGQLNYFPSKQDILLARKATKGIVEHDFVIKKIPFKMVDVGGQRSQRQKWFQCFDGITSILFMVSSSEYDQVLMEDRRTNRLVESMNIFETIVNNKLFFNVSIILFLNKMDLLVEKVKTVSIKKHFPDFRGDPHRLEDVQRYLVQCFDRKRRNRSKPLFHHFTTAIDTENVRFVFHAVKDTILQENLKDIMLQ

Target: T1, GPR91 (human (endogenous in hMSC)) (UniProt Q9BXA5)
T1 sequence: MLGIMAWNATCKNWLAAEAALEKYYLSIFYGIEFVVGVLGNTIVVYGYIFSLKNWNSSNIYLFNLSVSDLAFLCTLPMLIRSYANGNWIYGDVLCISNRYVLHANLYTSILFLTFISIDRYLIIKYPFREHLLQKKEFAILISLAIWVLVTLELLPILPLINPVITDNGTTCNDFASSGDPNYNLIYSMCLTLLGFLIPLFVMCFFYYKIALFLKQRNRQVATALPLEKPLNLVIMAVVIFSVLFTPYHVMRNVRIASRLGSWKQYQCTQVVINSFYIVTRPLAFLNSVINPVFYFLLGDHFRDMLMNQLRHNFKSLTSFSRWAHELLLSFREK
Experiment: co-IP; endogenous proteins of hMSC lysate; control cells of the experiment with or without succinate for 5 min; the precipitating antibody is not told

binding | Substance
binds | Gαq (from UniProt P50148 1-359)
binds | Gα12 (from UniProt Q03113 1-381)
